Reference: PubChem BioAssay AID248 (DTP/NCI, 2004)
The list shows only some results of the screen, not a fair sample: it gathers tests that were run many times, whatever their T/C, doses with no T/C, and many T/C values between a quarter and a half above the control. Further doses and runs are listed elsewhere. T/C: endpoint of the treated group in % of that of the vehicle group. Some doses have a count of surviving animals in place of a T/C: the source files T/C as zero there, which appears to mark a toxic dose or a test without result, not a measured value. Some survivor counts are full or nearly so, which does not show that the dose was tolerated: survival well below the control is almost never listed, so the zero probably covers shortened survival too. Survivors were counted at the toxicity check, usually on the fifth day, unless a day is given; later deaths do not show. Schedule codes are those of the source, read here as Q, the interval in days (D) or hours (H), X, the number of doses. Some entries hold several experiments; the results are listed from low to high. Some schedule codes hold Z or #, which are not explained here. Where survival is the endpoint, this PubChem deposit counts one and a half times the control or more as active, and values a quarter to a half above the control carry no call in these data; other NCI protocols may use other cut-offs. Some T/C values carry the count of animals alive at the toxicity check (mostly the fifth day); where none is given, no animal had died by that day.

Test system: L1210 leukemia ip in BDF1 mice, survival T/C
Assay: NCI In Vivo Anticancer Drug Screen. Data for tumor model L1210 Leukemia (intraperitoneal) in B6D2F1 (BDF1) mice
Details: T/C endpoint: mean survival time, higher T/C = longer survival
[1] = dose: 50.0 mg/kg/injection, schedule: Q01DX009 (ip), vehicle: saline
[2] = dose: 400.0 mg/kg/injection, schedule: Q01DX009 (ip), vehicle: saline
[3] = dose: 300.0 mg/kg/injection, schedule: Q01DX001 (ip), vehicle: saline
[4] = dose: 100.0 mg/kg/injection, schedule: Q01DX001 (ip), vehicle: saline
[5] = dose: 200.0 mg/kg/injection, schedule: Q01DX001 (ip), vehicle: saline
[6] = dose: 400.0 mg/kg/injection, schedule: Q01DX001 (ip), vehicle: saline
[7] = dose: 25.0 mg/kg/injection, schedule: Q01DX009 (ip), vehicle: Klucel (hydroxypropylcellulose) (HPC)
[8] = dose: 50.0 mg/kg/injection, schedule: Q01DX009 (ip), vehicle: Klucel (hydroxypropylcellulose) (HPC)
[9] = dose: 100.0 mg/kg/injection, schedule: Q01DX009 (ip), vehicle: Klucel (hydroxypropylcellulose) (HPC)
[10] = dose: 100.0 mg/kg/injection, schedule: Q04DX002 (ip), vehicle: Klucel (hydroxypropylcellulose) (HPC)
[11] = dose: 200.0 mg/kg/injection, schedule: Q04DX002 (ip), vehicle: Klucel (hydroxypropylcellulose) (HPC)
[12] = dose: 400.0 mg/kg/injection, schedule: Q04DX002 (ip), vehicle: Klucel (hydroxypropylcellulose) (HPC)
[13] = dose: 400.0 mg/kg/injection, schedule: Q04DX003 (ip), vehicle: Klucel (hydroxypropylcellulose) (HPC)
[14] = dose: 400.0 mg/kg/injection, schedule: Q04DX002 (ip), vehicle: saline
[15] = dose: 200.0 mg/kg/injection, schedule: Q01DX009 (ip), vehicle: saline with Tween-80
[16] = dose: 400.0 mg/kg/injection, schedule: Q04DX002 (ip), vehicle: saline with Tween-80

Cc1cccc(C(=O)NN)n1
survivor count [1]: 2 of 6
survivor count (dose: 100.0 mg/kg/injection, schedule: Q01DX009 (ip), vehicle: saline): 0 of 6
survivor count (dose: 200.0 mg/kg/injection, schedule: Q01DX009 (ip), vehicle: saline): 0 of 6
survivor count [2]: 0 of 6

CC1=CC(=O)CC(=O)O1
survivor count (dose: 400.0 mg/kg/injection, schedule: Q01DX009 (ip), vehicle: Klucel (hydroxypropylcellulose) (HPC)): 6 of 6

CCCCCCCC/C=C\CCCCCCCC(=O)NCC[N+]1(C)CCCCC1
survivor count [3]: 2 of 6

CCCCCCOC(=O)C(N)Cc1ccc(OC)c(N(CCCl)CCCl)c1 (stereo not given)
survivor count (dose: 25.0 mg/kg/injection, schedule: Q01DX001 (ip), vehicle: saline): 6 of 6
survivor count (dose: 30.0 mg/kg/injection, schedule: Q01DX001 (ip), vehicle: saline): 1 of 6
survivor count (dose: 50.0 mg/kg/injection, schedule: Q01DX001 (ip), vehicle: saline): 0 of 6
survivor count (dose: 60.0 mg/kg/injection, schedule: Q01DX001 (ip), vehicle: saline): 0 of 6
survivor count (dose: 75.0 mg/kg/injection, schedule: Q01DX001 (sc), vehicle: carboxymethylcellulose (CMC)): 2 of 6
survivor count [4]: 0 of 6
survivor count (dose: 150.0 mg/kg/injection, schedule: Q01DX001 (sc), vehicle: carboxymethylcellulose (CMC)): 0 of 6
survivor count [5]: 0 of 6
survivor count (dose: 300.0 mg/kg/injection, schedule: Q01DX001 (sc), vehicle: carboxymethylcellulose (CMC)): 0 of 6
survivor count [6]: 0 of 6

Cc1ccc(Nc2cc(=O)[nH]c(N)n2)cc1
survivor count (dose: 200.0 mg/kg/injection, schedule: Q01DX Z (ip), vehicle: methylcellulose (MC)): 1 of 6

CCCCCCCCN1CCC(c2cccc(O)c2)C(C(=O)CC)C1 (stereo not given)
survivor count (dose: 12.0 mg/kg/injection, schedule: Q01DX009 (ip), vehicle: Klucel (hydroxypropylcellulose) (HPC)): 1 of 3
T/C [7]: 94 [2 of 3 alive], 96, 102 % of control
survivor count [7]: 3 of 3
survivor count [8]: 3 of 3
survivor count [9]: 0 of 3 and 1 of 3
survivor count [10]: 2 of 3
survivor count [11]: 1 of 3
survivor count [12]: 0 of 3

CN(C)CCC(=O)c1ccc(-c2ccccc2)cc1
survivor count [13]: 0 of 6

O=C(OCc1ccccc1CN1CCCC1)c1ccc([N+](=O)[O-])cc1Cl
survivor count [14]: 1 of 3

CS(=O)(=O)OCCN(CCOS(C)(=O)=O)c1ccc(C=Nc2ccc3ccccc3c2)cc1
T/C (dose: 53.3 mg/kg/injection, schedule: Q04DX003 (ip), vehicle: Klucel (hydroxypropylcellulose) (HPC)): 142 % of control
T/C (dose: 80.0 mg/kg/injection, schedule: Q04DX003 (ip), vehicle: Klucel (hydroxypropylcellulose) (HPC)): 138 % of control
survivor count (dose: 200.0 mg/kg/injection, schedule: Q04DX003 (ip), vehicle: Klucel (hydroxypropylcellulose) (HPC)): 5 of 6
survivor count [13]: 6 of 6

CCCCc1ccc(-n2c(C)c(COC(=O)NC)c(COC(=O)NC)c2C)cc1
T/C (dose: 12.5 mg/kg/injection, schedule: Q01DX009 (ip), vehicle: Klucel (hydroxypropylcellulose) (HPC)): 125 % of control [9 of 10 alive]
T/C [7]: 134 % of control
T/C [8]: 145 % of control
survivor count [9]: 5 of 10

OCc1nc2cc3nc(CO)[nH]c3cc2[nH]1
survivor count (dose: 300.0 mg/kg/injection, schedule: Q01DX001 (ip), vehicle: carboxymethylcellulose (CMC)): 0 of 6

C=CC(C)C/C(CC)=N\NC(N)=O (stereo not given)
survivor count (dose: 300.0 mg/kg/injection, schedule: Q01DX001 (ip), vehicle: other): 3 of 6

COc1cc(C(=O)Nc2ccc(N(C)C)cc2)cc(OC)c1OC
survivor count [2]: 3 of 6

O=C(O)/C=C/C(=O)Nc1ccc(Br)c(Cl)c1
survivor count [15]: 6 of 6
survivor count (dose: 400.0 mg/kg/injection, schedule: Q01DX009 (ip), vehicle: saline with Tween-80): 0 of 6

O=C(S)c1ccccc1.[Pb]
survivor count [16]: 0 of 3

O=C(c1ccc(C(=O)N(C2CCCCC2)C2CCCCC2)cc1)N(C1CCCCC1)C1CCCCC1
survivor count [4]: 1 of 6
survivor count [5]: 0 of 6
survivor count [6]: 0 of 6

C[CH2][Hg][I]
survivor count (dose: 100.0 mg/kg/injection, schedule: Q04DX002 (ip), vehicle: saline with Tween-80): 1 of 3 and 2 of 3
survivor count (dose: 200.0 mg/kg/injection, schedule: Q04DX002 (ip), vehicle: saline with Tween-80): 0 of 3
survivor count [16]: 0 of 3

COc1ccc(NC(=O)c2ccc(C(=O)Nc3ccc(OC)cc3OC)cc2)c(OC)c1
survivor count [10]: 3 of 3

C[N+]1(C)C2CCCC1CCC2
survivor count [10]: 0 of 3
survivor count [11]: 0 of 3
survivor count [12]: 0 of 3

CC(C)C(CN)(CCCN1CCCC1)c1cccc2ccccc12 (stereo not given)
survivor count (dose: 200.0 mg/kg/injection, schedule: Q04DX003 (ip), vehicle: saline with Tween-80): 1 of 6
survivor count (dose: 400.0 mg/kg/injection, schedule: Q04DX003 (ip), vehicle: saline with Tween-80): 0 of 6

O=S(=O)(O)SCC1=NCCN1
survivor count (dose: 100.0 mg/kg/injection, schedule: Q04DX002 (ip), vehicle: saline): 1 of 3
survivor count (dose: 200.0 mg/kg/injection, schedule: Q04DX002 (ip), vehicle: saline): 0 of 3
survivor count [14]: 0 of 3

OC(c1ccccc1)(c1ccccc1)c1ccncc1
survivor count (dose: 100.0 mg/kg/injection, schedule: Q01DX009 (ip), vehicle: saline with Tween-80): 3 of 3
survivor count [15]: 3 of 3

C=C(C)C(=O)O[C@H]1CC2=C[C@@H](C[C@@]3(C)O[C@@H]3[C@H]3OC(=O)C(=C)[C@@H]31)OC2=O
T/C (dose: 2.5 mg/kg/injection, schedule: Q01DX Z (ip), vehicle: saline): 128 % of control

OCCN1CCN(CC/C=C2\c3ccccc3COc3ccc(Cl)cc32)CC1
survivor count (dose: 6.25 mg/kg/injection, schedule: Q03HX024 (ip), vehicle: saline): 3 of 6
survivor count (dose: 12.5 mg/kg/injection, schedule: Q01DX009 (ip), vehicle: saline): 5 of 6
survivor count (dose: 12.5 mg/kg/injection, schedule: Q03HX024 (ip), vehicle: saline): 0 of 6
survivor count (dose: 25.0 mg/kg/injection, schedule: Q01DX009 (ip), vehicle: saline): 2 of 6 and 6 of 6
T/C (dose: 25.0 mg/kg/injection, schedule: Q04DX003 (ip), vehicle: saline): 128 % of control [3 of 4 alive]
survivor count (dose: 32.0 mg/kg/injection, schedule: Q01DX009 (ip), vehicle: saline): 6 of 6
survivor count [1]: 2 of 6 and 3 of 6
T/C (dose: 50.0 mg/kg/injection, schedule: Q04DX003 (ip), vehicle: saline): 128 [5 of 6 alive] and 132 % of control
survivor count (dose: 100.0 mg/kg/injection, schedule: Q04DX003 (ip), vehicle: saline): 0 of 4 and 4 of 6
survivor count (dose: 150.0 mg/kg/injection, schedule: Q01DX001 (ip), vehicle: saline): 2 of 6
survivor count (dose: 200.0 mg/kg/injection, schedule: Q04DX003 (ip), vehicle: saline): 0 of 4
survivor count [3]: 0 of 6
survivor count (dose: 400.0 mg/kg/injection, schedule: Q04DX003 (ip), vehicle: saline): 0 of 4

O=NN(CCCl)C(=O)NC1C=CCCC1 (stereo not given)
T/C (dose: 13.0 mg/kg/injection, schedule: Q01DX001 (ip), vehicle: other): 129 % of control
survivor count (dose: 168.0 mg/kg/injection, schedule: Q01DX001 (ip), vehicle: other): 8 of 10

O=C1OCCN1/N=C/c1ccc(Cl)cc1
survivor count [16]: 3 of 3
